Laboratory results reported in publication PMC9516604.

Amino acid sequences for entries named in this document (tags omitted). A change or cut given only in a name is not applied to a line headed by its entry.
UniProt Q08J23, whole entry: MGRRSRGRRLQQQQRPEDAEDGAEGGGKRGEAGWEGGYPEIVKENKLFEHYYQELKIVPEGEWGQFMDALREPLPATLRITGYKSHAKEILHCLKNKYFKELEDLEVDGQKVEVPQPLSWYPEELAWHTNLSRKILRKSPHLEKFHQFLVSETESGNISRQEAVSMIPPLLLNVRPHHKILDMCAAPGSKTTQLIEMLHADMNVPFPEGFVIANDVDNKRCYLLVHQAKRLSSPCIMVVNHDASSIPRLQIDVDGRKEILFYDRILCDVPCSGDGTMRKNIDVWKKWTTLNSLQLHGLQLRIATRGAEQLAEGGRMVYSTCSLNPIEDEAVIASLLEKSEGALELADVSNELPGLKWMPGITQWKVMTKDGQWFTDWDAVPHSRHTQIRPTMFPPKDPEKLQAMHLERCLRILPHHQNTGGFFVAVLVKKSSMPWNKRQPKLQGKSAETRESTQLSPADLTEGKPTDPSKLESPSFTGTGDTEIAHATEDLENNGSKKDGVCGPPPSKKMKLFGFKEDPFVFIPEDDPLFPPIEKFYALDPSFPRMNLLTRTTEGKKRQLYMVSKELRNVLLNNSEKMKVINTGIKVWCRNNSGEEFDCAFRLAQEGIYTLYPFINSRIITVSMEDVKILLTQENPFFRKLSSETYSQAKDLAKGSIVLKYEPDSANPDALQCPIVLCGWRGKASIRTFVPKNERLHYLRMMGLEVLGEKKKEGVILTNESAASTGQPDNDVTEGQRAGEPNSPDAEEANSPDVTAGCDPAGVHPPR
UniProt P67809: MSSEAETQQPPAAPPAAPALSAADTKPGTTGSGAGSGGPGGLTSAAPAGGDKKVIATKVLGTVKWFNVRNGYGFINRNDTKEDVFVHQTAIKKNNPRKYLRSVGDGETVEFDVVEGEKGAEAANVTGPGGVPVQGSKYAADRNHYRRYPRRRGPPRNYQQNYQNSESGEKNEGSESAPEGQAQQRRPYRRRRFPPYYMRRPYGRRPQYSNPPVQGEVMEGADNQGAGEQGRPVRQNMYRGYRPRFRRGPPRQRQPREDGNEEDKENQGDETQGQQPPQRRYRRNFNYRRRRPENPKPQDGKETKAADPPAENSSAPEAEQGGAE

Key:
NSUN2 = NSUN2 (UniProt Q08J23); assay: pull-down; conditions: pull-down: RIPA lysate, streptavidin beads with 50 pmol probe, 60 min 4 C, label: 3'-biotin
YBX1 (Homo sapiens) = YBX1 (Homo sapiens) (UniProt P67809); assay: EMSA; conditions: 200 ng YBX1, 20 ng probe, EMSA: binding buffer (composition not given), 30 min room temperature, 6% native PAGE, commercial protein, label: biotin, probe letters rebuilt from the primers and the genome

Sequence: AUGAUGAUGAAGAAGAAGAAGAAGAAGAAGAAGAAGAAGAAGAAGAAGAAGAAGAAGAAGAAGAAGAAGAAG [AR site 2 pull-down probe (probe-mut)]
- binding result (NSUN2; cell lysate, site 2 cytosines stated crucial for NSUN2 binding, protein in an …): binds more weakly

Sequence: CUGCUGCUGCAGCAGCAGCAGCAGCAGCAGCAGCAGCAGCAGCAGCAGCAGCAGCAGCAGCAGCAGCAGCAG [AR site 2 pull-down probe (probe-normal)]
- binding result (NSUN2; C4-2 lysate, protein in an extract): binds

Sequence: GGGAGACUUUCCAGAAUCUGUUCCAGAGCGUGCGCGAAGUGAUCCAGAACCCGGGCCCCAGGCACCCAGAGGCCGCGAGCGCAGCACCUCCCGGCGCCAGUUUGCUGCUGCUGCAGCAGCAGCAGCAGCAGCAGCAGCAGCAGCAGCAGCAGCAGCAGCAGCAGCAGCAGCAGCAGCAGCAAGAGACUAGCCCCAGGCAGCAGCAGCAGCAGCAGGGUGAGGAUGGUUCUCCCCAAGCCCAUCGUAGAGGCCCCACAGGCUACCUGGUCCUGGAUGAGGAACAGCAACCUUCACAGCCGCAGUCGGCCCUGGAGUGCCACCCCGAGAGAGGUUGCGUCCCAGAGCCUGGAGCCGCCGUGGCCGCCAGCAAGGGGCUGCC [AR site 2 probe, m5C-modified]
- binding result (YBX1 (Homo sapiens); m5C at clustered cytosines (enzymatic, NSUN2 + SAM; exact positions not given)): binds

Sequence: GGGAGACUUUCCAGAAUCUGUUCCAGAGCGUGCGCGAAGUGAUCCAGAACCCGGGCCCCAGGCACCCAGAGGCCGCGAGCGCAGCACCUCCCGGCGCCAGUUUGCUGCUGCUGCAGCAGCAGCAGCAGCAGCAGCAGCAGCAGCAGCAGCAGCAGCAGCAGCAGCAGCAGCAGCAGCAGCAAGAGACUAGCCCCAGGCAGCAGCAGCAGCAGCAGGGUGAGGAUGGUUCUCCCCAAGCCCAUCGUAGAGGCCCCACAGGCUACCUGGUCCUGGAUGAGGAACAGCAACCUUCACAGCCGCAGUCGGCCCUGGAGUGCCACCCCGAGAGAGGUUGCGUCCCAGAGCCUGGAGCCGCCGUGGCCGCCAGCAAGGGGCUGCC [AR site 2 probe, unmodified]
- binding result (YBX1 (Homo sapiens)): no binding

The exact form of at least one protein or probe is not confirmed. For some of these results: No signal at the amounts used counts as a negative. For some of these results: At least one result comes from cells or an extract, where the contact may be indirect. For some of these results: A weaker result is weaker than the reference pair of the same experiment. For some of these results: At least one verdict was read from the data and is not stated in words by the source.
